Laboratory results published in PMC11425205, “MdSINA2‐MdNAC104 Module Regulates Apple Alkaline Resistance by Affecting γ‐Aminobutyric Acid Synthesis and Transport”.
Construct, isoform or probe ends are uncertain for at least one entry. At least one verdict rests on a figure or table, not on a statement of the authors. Tags and fusion partners may be left off the protein sequences shown.

Target: T1, MdNAC104 (UniProt D9ZJ88)
T1 sequence (looked up, limits assumed): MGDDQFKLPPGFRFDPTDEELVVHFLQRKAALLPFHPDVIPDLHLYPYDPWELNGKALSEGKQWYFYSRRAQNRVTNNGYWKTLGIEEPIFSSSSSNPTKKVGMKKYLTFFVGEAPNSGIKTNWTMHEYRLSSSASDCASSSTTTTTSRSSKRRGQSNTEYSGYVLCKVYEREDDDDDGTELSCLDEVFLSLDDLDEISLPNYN
Assay: EMSA
Details: LightShift Chemiluminescent EMSA Kit (Thermo) per manufacturer; pH and temperature not stated; recombinant protein; protein details: His (pET-32a vector); label: 5' biotin

Sequence: GCGACCATTGCACGCAGCACGCACACAGGA (double strand) [MdGAD3 probe 2/3]
- binding result: binds

Sequence: TAATAGAAATGAGCACGTTTGTTAACGTTA (double strand) [MdGAD3 probe 5]
- binding result: binds
